Compound in this test: Nc1ncnc2c1ncn2[C@@H]1O[C@H](COP(=O)(O)OP(=O)(O)NP(=O)(O)O)[C@@H](O)[C@H]1O [adenylyl imidodiphosphate]
Briefly: NP40-soluble protein abundance relative to vehicle (solubility fold change) (ratio); higher = more soluble protein in presence of AMP-PNP. In short, it runs like this: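 Data come from three independent experiments in which Dounce-homogenised Jurkat crude lysate was treated at eight concentrations from 0.1 to 10 mM. Treatment ran 10 min at room temperature and then 3 min at 37 °C, after which 0.8% NP40 and benzonase were added for 60 min at 4 °C before ultracentrifugation. The supernatant underwent TMT labelling and LC-MS/MS, and vsn-normalised intensities were expressed as fold change against the detergent-processed vehicle in each replicate.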

Sequences of proteins named here, by UniProt entry; tags and fusion partners are left off. A change or cut given only in a name is not applied to a line headed by its entry.
UniProt Q5VVQ6: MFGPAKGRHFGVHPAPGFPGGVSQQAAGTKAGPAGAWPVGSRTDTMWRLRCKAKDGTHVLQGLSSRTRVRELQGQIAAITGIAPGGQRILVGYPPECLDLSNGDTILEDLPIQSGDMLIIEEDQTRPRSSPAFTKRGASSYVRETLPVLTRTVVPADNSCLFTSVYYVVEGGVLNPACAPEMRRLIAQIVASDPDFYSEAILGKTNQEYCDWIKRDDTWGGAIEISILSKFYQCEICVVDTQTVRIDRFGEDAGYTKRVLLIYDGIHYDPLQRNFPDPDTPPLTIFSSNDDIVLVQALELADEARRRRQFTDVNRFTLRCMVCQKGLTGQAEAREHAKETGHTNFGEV
UniProt Q6IQ49: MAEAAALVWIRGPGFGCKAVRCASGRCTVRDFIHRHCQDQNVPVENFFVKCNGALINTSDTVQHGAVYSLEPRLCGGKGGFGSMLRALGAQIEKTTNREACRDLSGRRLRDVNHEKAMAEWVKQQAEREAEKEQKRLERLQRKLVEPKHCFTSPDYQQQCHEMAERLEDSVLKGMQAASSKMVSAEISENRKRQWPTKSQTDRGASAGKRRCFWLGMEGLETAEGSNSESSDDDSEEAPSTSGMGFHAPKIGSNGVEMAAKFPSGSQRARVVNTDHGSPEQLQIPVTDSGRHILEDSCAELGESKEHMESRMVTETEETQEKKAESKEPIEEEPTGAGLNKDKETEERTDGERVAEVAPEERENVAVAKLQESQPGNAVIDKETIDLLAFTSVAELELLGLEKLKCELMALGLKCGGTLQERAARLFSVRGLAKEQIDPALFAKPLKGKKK
UniProt Q6UWE0: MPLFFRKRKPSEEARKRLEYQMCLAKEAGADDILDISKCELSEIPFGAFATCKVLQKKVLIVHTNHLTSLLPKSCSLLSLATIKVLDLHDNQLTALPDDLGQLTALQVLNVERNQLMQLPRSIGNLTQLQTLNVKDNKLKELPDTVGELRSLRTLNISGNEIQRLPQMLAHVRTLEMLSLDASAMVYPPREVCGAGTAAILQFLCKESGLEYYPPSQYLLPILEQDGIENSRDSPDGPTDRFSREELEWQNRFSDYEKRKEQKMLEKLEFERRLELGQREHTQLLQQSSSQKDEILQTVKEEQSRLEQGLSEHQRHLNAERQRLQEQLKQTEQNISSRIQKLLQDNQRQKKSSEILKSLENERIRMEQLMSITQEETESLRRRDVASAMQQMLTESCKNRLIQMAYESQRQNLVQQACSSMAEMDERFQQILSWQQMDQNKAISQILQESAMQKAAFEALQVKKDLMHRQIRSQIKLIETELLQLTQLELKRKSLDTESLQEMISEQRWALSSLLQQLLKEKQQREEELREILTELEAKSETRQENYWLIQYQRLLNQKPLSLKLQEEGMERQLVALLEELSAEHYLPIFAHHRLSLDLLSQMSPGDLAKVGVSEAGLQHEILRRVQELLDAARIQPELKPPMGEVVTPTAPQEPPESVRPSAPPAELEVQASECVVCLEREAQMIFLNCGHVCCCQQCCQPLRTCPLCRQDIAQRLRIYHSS
UniProt Q6IN85: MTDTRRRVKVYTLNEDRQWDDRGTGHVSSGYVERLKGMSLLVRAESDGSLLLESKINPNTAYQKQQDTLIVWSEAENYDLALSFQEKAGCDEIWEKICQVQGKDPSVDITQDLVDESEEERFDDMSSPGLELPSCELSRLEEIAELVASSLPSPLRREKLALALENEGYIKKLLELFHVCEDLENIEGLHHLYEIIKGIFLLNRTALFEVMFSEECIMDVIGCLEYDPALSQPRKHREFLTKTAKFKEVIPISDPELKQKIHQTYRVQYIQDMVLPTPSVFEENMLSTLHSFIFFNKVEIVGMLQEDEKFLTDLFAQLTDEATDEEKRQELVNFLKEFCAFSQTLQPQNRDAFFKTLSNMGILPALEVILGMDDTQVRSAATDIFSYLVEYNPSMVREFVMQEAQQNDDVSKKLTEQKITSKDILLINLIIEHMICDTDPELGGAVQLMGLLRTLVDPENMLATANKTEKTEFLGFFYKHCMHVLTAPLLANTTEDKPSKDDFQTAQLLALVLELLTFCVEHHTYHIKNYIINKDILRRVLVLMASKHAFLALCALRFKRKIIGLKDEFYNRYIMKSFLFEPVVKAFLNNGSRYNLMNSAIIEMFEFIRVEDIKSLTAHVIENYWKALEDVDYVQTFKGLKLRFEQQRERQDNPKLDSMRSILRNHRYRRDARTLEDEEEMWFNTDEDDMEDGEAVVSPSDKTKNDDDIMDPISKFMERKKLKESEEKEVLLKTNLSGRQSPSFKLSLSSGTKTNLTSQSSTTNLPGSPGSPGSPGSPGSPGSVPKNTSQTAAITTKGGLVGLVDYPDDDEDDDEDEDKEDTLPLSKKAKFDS
UniProt Q7Z5G4, whole entry: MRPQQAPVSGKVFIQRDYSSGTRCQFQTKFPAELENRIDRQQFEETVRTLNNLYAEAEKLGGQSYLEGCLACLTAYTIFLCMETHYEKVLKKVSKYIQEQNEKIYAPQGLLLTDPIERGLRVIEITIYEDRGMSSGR
UniProt Q6IE81, whole entry: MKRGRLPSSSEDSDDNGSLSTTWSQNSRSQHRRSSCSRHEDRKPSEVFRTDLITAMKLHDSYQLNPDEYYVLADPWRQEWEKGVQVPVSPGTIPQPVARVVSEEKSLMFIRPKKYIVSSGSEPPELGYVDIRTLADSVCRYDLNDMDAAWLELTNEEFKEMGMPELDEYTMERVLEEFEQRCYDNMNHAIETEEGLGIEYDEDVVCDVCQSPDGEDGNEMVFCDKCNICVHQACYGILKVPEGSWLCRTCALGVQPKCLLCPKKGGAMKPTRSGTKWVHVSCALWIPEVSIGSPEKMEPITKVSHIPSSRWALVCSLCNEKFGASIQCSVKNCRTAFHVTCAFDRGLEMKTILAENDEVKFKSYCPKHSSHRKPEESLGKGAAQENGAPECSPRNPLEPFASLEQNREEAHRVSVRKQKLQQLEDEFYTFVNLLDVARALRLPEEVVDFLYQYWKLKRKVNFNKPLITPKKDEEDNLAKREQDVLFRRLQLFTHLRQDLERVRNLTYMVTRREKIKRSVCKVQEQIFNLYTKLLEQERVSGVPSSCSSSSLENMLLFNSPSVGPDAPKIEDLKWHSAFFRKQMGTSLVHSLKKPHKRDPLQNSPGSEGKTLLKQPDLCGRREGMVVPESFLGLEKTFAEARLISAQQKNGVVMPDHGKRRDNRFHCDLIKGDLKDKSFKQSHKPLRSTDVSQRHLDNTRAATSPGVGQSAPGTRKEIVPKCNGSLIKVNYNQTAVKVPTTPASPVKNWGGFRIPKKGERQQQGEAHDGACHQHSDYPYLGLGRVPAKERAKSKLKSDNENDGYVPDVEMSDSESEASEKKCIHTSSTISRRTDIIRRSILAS
UniProt Q658Y4: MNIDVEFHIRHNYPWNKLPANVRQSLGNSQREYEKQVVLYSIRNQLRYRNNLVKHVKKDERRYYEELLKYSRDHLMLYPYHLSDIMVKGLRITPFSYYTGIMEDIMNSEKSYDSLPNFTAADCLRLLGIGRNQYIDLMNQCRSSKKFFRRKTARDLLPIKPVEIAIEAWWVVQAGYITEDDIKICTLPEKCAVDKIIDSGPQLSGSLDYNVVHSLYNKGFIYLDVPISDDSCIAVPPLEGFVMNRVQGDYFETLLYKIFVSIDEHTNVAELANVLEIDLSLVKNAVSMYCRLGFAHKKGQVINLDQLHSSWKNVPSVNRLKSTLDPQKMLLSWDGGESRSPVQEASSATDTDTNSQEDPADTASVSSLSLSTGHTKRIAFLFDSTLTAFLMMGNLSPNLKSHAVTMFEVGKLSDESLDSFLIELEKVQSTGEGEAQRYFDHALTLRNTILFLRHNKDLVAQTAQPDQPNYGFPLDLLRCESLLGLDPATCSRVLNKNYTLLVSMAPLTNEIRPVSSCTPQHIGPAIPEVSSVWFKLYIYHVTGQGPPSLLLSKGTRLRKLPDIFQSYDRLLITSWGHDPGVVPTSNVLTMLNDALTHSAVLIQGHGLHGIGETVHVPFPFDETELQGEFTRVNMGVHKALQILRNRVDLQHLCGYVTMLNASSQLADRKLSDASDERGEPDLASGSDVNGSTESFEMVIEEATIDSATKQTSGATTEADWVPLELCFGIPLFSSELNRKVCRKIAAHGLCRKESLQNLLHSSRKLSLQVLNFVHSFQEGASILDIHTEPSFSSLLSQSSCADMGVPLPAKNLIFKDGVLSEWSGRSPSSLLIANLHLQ
UniProt Q7L4P6: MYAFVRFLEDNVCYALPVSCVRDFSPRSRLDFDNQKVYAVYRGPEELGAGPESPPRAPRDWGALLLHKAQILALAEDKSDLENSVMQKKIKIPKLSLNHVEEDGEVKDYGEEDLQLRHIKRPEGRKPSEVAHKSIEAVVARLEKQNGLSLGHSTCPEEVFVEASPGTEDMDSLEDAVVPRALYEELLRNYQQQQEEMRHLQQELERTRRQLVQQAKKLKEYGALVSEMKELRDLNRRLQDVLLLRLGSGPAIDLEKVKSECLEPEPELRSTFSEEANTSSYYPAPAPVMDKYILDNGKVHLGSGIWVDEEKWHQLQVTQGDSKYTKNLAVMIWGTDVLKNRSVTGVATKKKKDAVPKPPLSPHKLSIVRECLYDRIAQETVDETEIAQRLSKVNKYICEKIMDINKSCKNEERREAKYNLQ
UniProt Q6UX04: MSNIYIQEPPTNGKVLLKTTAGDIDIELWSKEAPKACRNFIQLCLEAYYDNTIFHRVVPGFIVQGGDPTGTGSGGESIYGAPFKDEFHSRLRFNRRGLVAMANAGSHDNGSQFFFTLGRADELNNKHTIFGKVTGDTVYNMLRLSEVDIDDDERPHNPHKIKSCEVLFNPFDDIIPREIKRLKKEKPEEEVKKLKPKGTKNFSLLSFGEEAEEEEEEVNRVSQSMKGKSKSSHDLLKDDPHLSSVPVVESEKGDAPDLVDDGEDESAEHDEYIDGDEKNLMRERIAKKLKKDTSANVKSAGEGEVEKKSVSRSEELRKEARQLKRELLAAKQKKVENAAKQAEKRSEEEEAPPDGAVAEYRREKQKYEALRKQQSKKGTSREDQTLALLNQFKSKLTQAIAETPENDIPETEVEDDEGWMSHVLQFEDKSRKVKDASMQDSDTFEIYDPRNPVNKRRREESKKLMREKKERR
UniProt Q6PL24: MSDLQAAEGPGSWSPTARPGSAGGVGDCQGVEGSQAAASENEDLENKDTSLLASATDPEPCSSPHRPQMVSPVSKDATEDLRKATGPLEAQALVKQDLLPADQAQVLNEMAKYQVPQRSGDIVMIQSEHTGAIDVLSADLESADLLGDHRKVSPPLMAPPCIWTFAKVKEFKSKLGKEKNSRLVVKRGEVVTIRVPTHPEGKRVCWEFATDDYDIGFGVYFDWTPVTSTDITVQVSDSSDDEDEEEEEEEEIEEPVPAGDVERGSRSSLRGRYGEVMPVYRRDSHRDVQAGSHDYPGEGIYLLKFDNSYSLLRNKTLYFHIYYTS
UniProt Q6PJG6: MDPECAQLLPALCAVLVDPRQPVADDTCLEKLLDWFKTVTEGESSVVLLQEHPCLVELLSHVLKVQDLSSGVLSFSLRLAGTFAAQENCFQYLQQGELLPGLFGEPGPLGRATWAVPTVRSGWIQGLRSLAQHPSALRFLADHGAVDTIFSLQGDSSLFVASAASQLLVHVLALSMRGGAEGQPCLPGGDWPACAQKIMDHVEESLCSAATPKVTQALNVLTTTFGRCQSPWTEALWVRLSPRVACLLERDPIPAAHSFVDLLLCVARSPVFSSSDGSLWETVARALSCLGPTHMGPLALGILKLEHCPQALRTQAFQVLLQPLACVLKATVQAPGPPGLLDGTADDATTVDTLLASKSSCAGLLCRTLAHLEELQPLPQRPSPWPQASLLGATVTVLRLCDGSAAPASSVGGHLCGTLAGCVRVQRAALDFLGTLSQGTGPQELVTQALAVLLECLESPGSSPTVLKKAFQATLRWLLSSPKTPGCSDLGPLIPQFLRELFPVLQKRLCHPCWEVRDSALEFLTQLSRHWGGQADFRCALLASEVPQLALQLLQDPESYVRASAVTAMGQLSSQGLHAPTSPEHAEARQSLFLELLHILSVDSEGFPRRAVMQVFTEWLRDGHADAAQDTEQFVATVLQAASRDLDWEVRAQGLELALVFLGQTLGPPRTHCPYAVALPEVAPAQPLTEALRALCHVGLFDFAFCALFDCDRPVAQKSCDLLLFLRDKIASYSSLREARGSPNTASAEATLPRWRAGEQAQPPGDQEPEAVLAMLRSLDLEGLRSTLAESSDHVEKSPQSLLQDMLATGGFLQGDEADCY
UniProt Q6ZNW5: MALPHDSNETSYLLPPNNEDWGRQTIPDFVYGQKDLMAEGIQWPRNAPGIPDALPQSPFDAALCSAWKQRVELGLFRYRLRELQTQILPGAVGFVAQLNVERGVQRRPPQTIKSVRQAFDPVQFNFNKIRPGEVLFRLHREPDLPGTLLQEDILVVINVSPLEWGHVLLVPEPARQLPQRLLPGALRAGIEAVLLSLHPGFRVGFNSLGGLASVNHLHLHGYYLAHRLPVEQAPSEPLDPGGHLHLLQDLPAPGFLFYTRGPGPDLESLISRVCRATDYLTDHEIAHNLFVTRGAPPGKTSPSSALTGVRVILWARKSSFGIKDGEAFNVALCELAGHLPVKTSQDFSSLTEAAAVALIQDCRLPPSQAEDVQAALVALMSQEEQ

± gives the standard deviation of the averaged measurements. The list shows a part of the results, in another mix than the full data. Small differences around the control level are noise.

For the target UniProt Q5VVQ6 and related entries, the NP40-soluble protein abundance runs as follows: (concentration: 0.1mM) 0.978 ± 0.067; (concentration: 0.5mM) 0.931 ± 0.043.

Consider UniProt Q6PIW4 and related entries, for which the NP40-soluble protein abundance is, setting by setting: (concentration: 0.1mM) 0.9764 ± 0.0044; (concentration: 0.5mM) 0.966 ± 0.018.

For the target “UniProt Q6PJT7-2|Q6PJT7-3|Q6PJT7-5|Q6PJT7-9|Q6PJT7”, the NP40-soluble protein abundance is, setting by setting: (concentration: 0.1mM) 0.98 ± 0.014; (concentration: 0.5mM) 1.003 ± 0.0076.

As for UniProt Q71F23, the NP40-soluble protein abundance amounted to 1.038 ± 0.0054 (concentration: 0.1mM) and 1.02 ± 0.028 (concentration: 0.5mM).

With UniProt Q6IQ49 and related entries, the NP40-soluble protein abundance by setting is: (concentration: 0.1mM) 0.953 ± 0.021; (concentration: 0.5mM) 0.96 ± 0.012.

As to NCR3LG1 (UniProt Q68D85), the NP40-soluble protein abundance is 0.991 ± 0.014 (concentration: 0.1mM) and 1.011 ± 0.004 (concentration: 0.5mM).

UniProt Q6UWE0 and related entries: the NP40-soluble protein abundance by setting is: (concentration: 0.1mM) 1.002 ± 0.0039; (concentration: 0.5mM) 0.979 ± 0.014.

As for UniProt Q7L4I2 and related entries, the NP40-soluble protein abundance (concentration: 0.1mM) is 1.03 ± 0.025 and the NP40-soluble protein abundance (concentration: 0.5mM) came out at 1.018 ± 0.0023.

As to PACS1 (UniProt Q6VY07), the NP40-soluble protein abundance (concentration: 0.1mM) amounted to 0.999 ± 0.026 and the NP40-soluble protein abundance (concentration: 0.5mM) was 0.997 ± 0.021.

Consider UniProt Q6IN85, for which the NP40-soluble protein abundance is 1.003 ± 0.0032 (concentration: 0.1mM) and 1 ± 0.013 (concentration: 0.5mM).

For the target UniProt Q6ZSZ5, the NP40-soluble protein abundance reads like this: (concentration: 0.1mM) 0.989 ± 0.023; (concentration: 0.5mM) 1.02 ± 0.072.

For ERICH5 (UniProt Q6P6B1), the NP40-soluble protein abundance was found to be 0.957 ± 0.03 (concentration: 0.1mM) and 0.976 ± 0.044 (concentration: 0.5mM).

Consider UniProt Q6Y1H2, for which the NP40-soluble protein abundance by setting is: (concentration: 0.1mM) 0.984 ± 0.04; (concentration: 0.5mM) 0.988 ± 0.028.

Take UniProt Q7L5D6: the NP40-soluble protein abundance stood at 1.05 ± 0.066 (concentration: 0.1mM) and 1.05 ± 0.12 (concentration: 0.5mM).

Turning to ZCCHC8 (UniProt Q6NZY4), the NP40-soluble protein abundance is 0.985 ± 0.022 (concentration: 0.1mM) and 0.989 ± 0.049 (concentration: 0.5mM).

With GRAMD4 (UniProt Q6IC98), the NP40-soluble protein abundance reads like this: (concentration: 0.1mM) 0.994 ± 0.015; (concentration: 0.5mM) 1.03 ± 0.036.

For UniProt Q7Z5G4 and related entries, the NP40-soluble protein abundance was determined as 1.05 ± 0.0075 (concentration: 0.1mM) and 1 ± 0.048 (concentration: 0.5mM).

As to UniProt Q6P4A7 and related entries, the NP40-soluble protein abundance turned out to be 1.001 ± 0.0085 (concentration: 0.1mM) and 0.9859 ± 0.0064 (concentration: 0.5mM).

PRPF38B (UniProt Q5VTL8): the NP40-soluble protein abundance is, setting by setting: (concentration: 0.1mM) 1.01 ± 0.067; (concentration: 0.5mM) 1.02 ± 0.047.

With UniProt Q6PII3 and related entries, the NP40-soluble protein abundance (concentration: 0.1mM) turned out to be 0.983 ± 0.013 and the NP40-soluble protein abundance (concentration: 0.5mM) was determined as 0.974 ± 0.018.

On to “Q5VVD7 and related entries (UniProt Q8IWE5)”, for which the NP40-soluble protein abundance by setting is: (concentration: 0.1mM) 0.984 ± 0.027; (concentration: 0.5mM) 0.988 ± 0.02.

For the target KCTD9 (UniProt Q7L273), the NP40-soluble protein abundance by setting is: (concentration: 0.1mM) 0.989 ± 0.02; (concentration: 0.5mM) 1.01 ± 0.033.

Consider UniProt Q6V1X1 and related entries, for which the NP40-soluble protein abundance worked out at 0.977 ± 0.047 (concentration: 0.1mM) and 0.953 ± 0.098 (concentration: 0.5mM).

Regarding UniProt Q6IE81 and related entries, the NP40-soluble protein abundance (concentration: 0.1mM) came to 1.01 ± 0.042 and the NP40-soluble protein abundance (concentration: 0.5mM) stood at 1.02 ± 0.027.

Consider CHMP1B (UniProt Q7LBR1), for which the NP40-soluble protein abundance was found to be 0.969 ± 0.046 (concentration: 0.1mM) and 1.03 ± 0.083 (concentration: 0.5mM).

As for FAM91A1 (UniProt Q658Y4), the NP40-soluble protein abundance by setting is: (concentration: 0.1mM) 1.01 ± 0.037; (concentration: 0.5mM) 0.982 ± 0.068.

In the case of CNNM4 (UniProt Q6P4Q7), the NP40-soluble protein abundance (concentration: 0.1mM) amounted to 0.986 ± 0.044 and the NP40-soluble protein abundance (concentration: 0.5mM) turned out to be 0.984 ± 0.017.

Consider ELMSAN1 (UniProt Q6PJG2), for which the NP40-soluble protein abundance runs as follows: (concentration: 0.1mM) 1.015 ± 0.0041; (concentration: 0.5mM) 1.01 ± 0.024.

For the target UniProt Q7L4P6 and related entries, the NP40-soluble protein abundance reads like this: (concentration: 0.1mM) 1.01 ± 0.1; (concentration: 0.5mM) 1.14 ± 0.23.

As for RPL7L1 (UniProt Q6DKI1), the NP40-soluble protein abundance was found to be 0.99 ± 0.035 (concentration: 0.1mM) and 0.956 ± 0.038 (concentration: 0.5mM).

In the case of ABHD13 (UniProt Q7L211), the NP40-soluble protein abundance is 1.0032 ± 0.00013 (concentration: 0.1mM) and 1 ± 0.027 (concentration: 0.5mM).

In the case of DYM (UniProt Q7RTS9), the NP40-soluble protein abundance reads like this: (concentration: 0.1mM) 1.018 ± 0.0075; (concentration: 0.5mM) 0.994 ± 0.014.

In the case of UniProt Q7KZ85 and related entries, the NP40-soluble protein abundance reads like this: (concentration: 0.1mM) 1 ± 0.043; (concentration: 0.5mM) 0.982 ± 0.046.

Take UniProt Q5VYS8 and related entries: the NP40-soluble protein abundance runs as follows: (concentration: 0.1mM) 1.016 ± 0.0097; (concentration: 0.5mM) 1.01 ± 0.02.

Take UniProt Q7Z460 and related entries: the NP40-soluble protein abundance by setting is: (concentration: 0.1mM) 0.988 ± 0.012; (concentration: 0.5mM) 0.997 ± 0.042.

Consider UniProt Q6ZWJ1 and related entries, for which the NP40-soluble protein abundance came out at 0.971 ± 0.028 (concentration: 0.1mM) and 0.996 ± 0.032 (concentration: 0.5mM).

Regarding DCAF15 (UniProt Q66K64), the NP40-soluble protein abundance by setting is: (concentration: 0.1mM) 1.02 ± 0.04; (concentration: 0.5mM) 1.02 ± 0.044.

For the target UniProt Q68E01 and related entries, the NP40-soluble protein abundance runs as follows: (concentration: 0.1mM) 0.983 ± 0.021; (concentration: 0.5mM) 0.999 ± 0.038.

For the target ANKRD16 (UniProt Q6P6B7), the NP40-soluble protein abundance by setting is: (concentration: 0.1mM) 1 ± 0.033; (concentration: 0.5mM) 0.996 ± 0.022.

On to UniProt Q6UX04, for which the NP40-soluble protein abundance stood at 0.969 ± 0.026 (concentration: 0.1mM) and 1.03 ± 0.065 (concentration: 0.5mM).

Regarding CDKAL1 (UniProt Q5VV42), the NP40-soluble protein abundance (concentration: 0.1mM) came to 1 ± 0.029 and the NP40-soluble protein abundance (concentration: 0.5mM) was 0.978 ± 0.039.

Regarding TMED8 (UniProt Q6PL24), the NP40-soluble protein abundance amounted to 1.02 ± 0.019 (concentration: 0.1mM) and 1.01 ± 0.012 (concentration: 0.5mM).

On to UniProt Q7Z3J2 and related entries, for which the NP40-soluble protein abundance by setting is: (concentration: 0.1mM) 0.986 ± 0.02; (concentration: 0.5mM) 1.02 ± 0.056.

For FAM117B (UniProt Q6P1L5), the NP40-soluble protein abundance (concentration: 0.1mM) amounted to 0.997 ± 0.023 and the NP40-soluble protein abundance (concentration: 0.5mM) was 0.989 ± 0.018.

In the case of NADSYN1 (UniProt Q6IA69), the NP40-soluble protein abundance is, setting by setting: (concentration: 0.1mM) 1.02 ± 0.057; (concentration: 0.5mM) 0.982 ± 0.058.

Regarding UniProt Q5VZI3 and related entries, the NP40-soluble protein abundance stood at 1.02 ± 0.02 (concentration: 0.1mM) and 1 ± 0.024 (concentration: 0.5mM).

On to UniProt Q6PJG6, for which the NP40-soluble protein abundance runs as follows: (concentration: 0.1mM) 0.969 ± 0.087; (concentration: 0.5mM) 0.983 ± 0.046.

Turning to UniProt Q6ZNW5, the NP40-soluble protein abundance (concentration: 0.1mM) was 0.991 ± 0.026 and the NP40-soluble protein abundance (concentration: 0.5mM) is 0.984 ± 0.037.

For the target UniProt Q6RFH5 and related entries, the NP40-soluble protein abundance is, setting by setting: (concentration: 0.1mM) 1 ± 0.017; (concentration: 0.5mM) 1 ± 0.025.

Consider UniProt Q7Z412 and related entries, for which the NP40-soluble protein abundance came out at 1.03 ± 0.023 (concentration: 0.1mM) and 1.03 ± 0.011 (concentration: 0.5mM).

On to PMF1 (UniProt Q6P1K2), for which the NP40-soluble protein abundance (concentration: 0.1mM) stood at 0.971 ± 0.068 and the NP40-soluble protein abundance (concentration: 0.5mM) amounted to 0.963 ± 0.064.

As for UniProt Q6PII5-2|B4DED4, the NP40-soluble protein abundance (concentration: 0.1mM) stood at 0.982 ± 0.028 and the NP40-soluble protein abundance (concentration: 0.5mM) was 0.986 ± 0.021.

On to NAIF1 (UniProt Q69YI7), for which the NP40-soluble protein abundance (concentration: 0.1mM) turned out to be 0.9714 ± 0.0026 and the NP40-soluble protein abundance (concentration: 0.5mM) was 0.999 ± 0.019.

As for UniProt Q7Z5K2-2|Q7Z5K2-3|Q7Z5K2, the NP40-soluble protein abundance turned out to be 0.975 ± 0.012 (concentration: 0.1mM) and 1 ± 0.039 (concentration: 0.5mM).

UniProt Q7Z333 and related entries: the NP40-soluble protein abundance by setting is: (concentration: 0.1mM) 1.01 ± 0.048; (concentration: 0.5mM) 1.01 ± 0.05.

On to RCSD1 (UniProt Q6JBY9), for which the NP40-soluble protein abundance is, setting by setting: (concentration: 0.1mM) 0.972 ± 0.048; (concentration: 0.5mM) 0.971 ± 0.027.

For the target UniProt Q6P4R8 and related entries, the NP40-soluble protein abundance came to 1.03 ± 0.077 (concentration: 0.1mM) and 1.02 ± 0.058 (concentration: 0.5mM).

On to UniProt Q6UB98 and related entries, for which the NP40-soluble protein abundance (concentration: 0.1mM) was 1 ± 0.023 and the NP40-soluble protein abundance (concentration: 0.5mM) was determined as 1 ± 0.056.

For the target SPNS3 (UniProt Q6ZMD2), the NP40-soluble protein abundance is, setting by setting: (concentration: 0.1mM) 1.014 ± 0.0042; (concentration: 0.5mM) 0.999 ± 0.015.
